The values that follow come from publication PMC3820802, “Activin Signaling Targeted by Insulin/dFOXO Regulates Aging and Muscle Proteostasis in Drosophila”.

Weaker means in comparison with the reference protein, sequence or condition of that experiment. Protein sequences can lack the tags named with them.

The target in this data set is T1, Smox MH1 DNA-binding domain (UniProt O96660).
T1 sequence (looked up): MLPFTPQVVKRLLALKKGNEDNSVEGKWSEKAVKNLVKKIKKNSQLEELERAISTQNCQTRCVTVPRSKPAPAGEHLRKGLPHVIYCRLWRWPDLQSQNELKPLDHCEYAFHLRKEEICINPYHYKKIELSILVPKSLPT
Briefly: competition with a labelled probe. Conditions: EMSA, cold competitor vs labeled N1, retained some competitive ability; 10 mM Tris-HCl pH 7.5, 150 mM KCl, 5 mM MgCl2, 10 ng/uL poly(dI-dC), ~50 ng probe, 20 ug protein in 10 uL, room temperature 20 min; 0.8% agarose, 0.5x TBE; recombinant protein; residues 1-140; label: unlabeled competitor.

As to “CATATTAGACAGATACCATT (double strand) [Atg8a-Mut4]”, the binding result is recorded as “binds more weakly”.

Regarding “CATATTAGGGAGACACCATT (double strand) [Atg8a-Mut1]”, the binding result is on record as “binds more weakly”.
